# The list shows a part of the results. Repeats are few or missing, and single values can be far off.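 Imaging used 1,536-well plates; nuclei positive for cleaved PARP by antibody were divided by total DNA-stained nuclei to yield the apoptosis fraction. Doses for screening kept most cells viable, and cell lines differ markedly in resting and induced cleaved-PARP levels.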
# What was measured:
# Test in all cases: cleaved PARP positive nuclei fraction relative to DMSO control; melanoma cells; higher = more apoptosis
# Settings in all cases: library dose: low library concentration; 72 h
# 501Mel = test system: 501Mel
# A101D = test system: A101D
# A2058 = test system: A2058
# A375 = test system: A375
# C32 = test system: C32
# CBRC013 = test system: CBRC013 (line from a melanoma biopsy)
# CBRC014 = test system: CBRC014 (line from a melanoma biopsy)
# CBRC016 = test system: CBRC016 (line from a melanoma biopsy)
# CBRC017 = test system: CBRC017 (line from a melanoma biopsy)
Structure (SMILES),cleaved PARP positive nuclei fraction (501Mel),cleaved PARP positive nuclei fraction (A101D),cleaved PARP positive nuclei fraction (A2058),cleaved PARP positive nuclei fraction (A375),cleaved PARP positive nuclei fraction (C32),cleaved PARP positive nuclei fraction (CBRC013),cleaved PARP positive nuclei fraction (CBRC014),cleaved PARP positive nuclei fraction (CBRC016),cleaved PARP positive nuclei fraction (CBRC017)
"Cc1ccc(NC(=O)c2cccc(N(C)C)c2)cc1NC(=O)c1ccc(O)cc1 + Cc1cc(SCc2sc(-c3ccc(C(F)(F)F)c(F)c3)nc2C)ccc1OCC(=O)O [GW0742] (first compound 2 µM, partner dose 2 µM)",203%,97.3%,77%,125%,113%,67.3%,114%,105%,115%
"CO[C@@H]1[C@H](N(C)C(=O)c2ccccc2)C[C@H]2O[C@]1(C)n1c3ccccc3c3c4c(c5c6ccccc6n2c5c31)C(=O)NC4 [Midostaurin] + Cc1cc(SCc2sc(-c3ccc(C(F)(F)F)c(F)c3)nc2C)ccc1OCC(=O)O [GW0742] (first compound 0.08 µM, partner dose 2 µM)",73.3%,94.9%,70.4%,193%,133%,448%,110%,206%,94.4%
"Cc1cc(SCc2sc(-c3ccc(C(F)(F)F)c(F)c3)nc2C)ccc1OCC(=O)O + O=C(O)C(=O)Nc1sc2c(c1C(=O)O)CCNC2 [TCS401] (first compound 2 µM, partner dose 1.66667 µM)",34.5%,118%,77.6%,83.3%,69.5%,23.7%,62.6%,73.5%,73.1%
"COC(=O)c1sccc1S(=O)(=O)Nc1ccc(Nc2ccccc2)cc1OC + O=C(Oc1ccc([N+](=O)[O-])cc1)N1CCC(C(O)(c2ccc3c(c2)OCO3)c2ccc3c(c2)OCO3)CC1 [JZL184] (first compound 1 µM, partner dose 1 µM)",31.5%,68.2%,75.5%,304%,32.8%,65.7%,87.5%,63.8%,81.8%
"CC1(C)NC(=O)N(c2ccc([N+](=O)[O-])c(C(F)(F)F)c2)C1=O [nilutamide] + C/C(O)=C(\C#N)C(=O)Nc1cc(Br)ccc1Br [LFM-A13] (first compound 1 µM, partner dose 2 µM)",414%,147%,68.2%,60.1%,74.5%,265%,76%,107%,92.3%
"C[C@]1(c2nc3c(C(N)=O)cccc3[nH]2)CCCN1 [Veliparib] + O=C(Oc1ccc([N+](=O)[O-])cc1)N1CCC(C(O)(c2ccc3c(c2)OCO3)c2ccc3c(c2)OCO3)CC1 [JZL184] (first compound 1.4 µM, partner dose 1 µM)",76.2%,233%,186%,60.3%,123%,390%,97.6%,90.4%,96.7%
"C[As](C)SC[C@H](NC(=O)CC[C@H](N)C(=O)O)C(=O)NCC(=O)O [Darinaparsin] + CCN(CC)CCCCNc1ncc2cc(-c3cc(OC)cc(OC)c3)c(NC(=O)NC(C)(C)C)nc2n1 [PD173074] (first compound 0.4 µM, partner dose 0.1 µM)",21.1%,165%,85.1%,20.6%,97.6%,176%,80.8%,14.7%,67%
"C[C@@H]1CCN(C(=O)CC#N)C[C@@H]1N(C)c1ncnc2[nH]ccc12 + C/C(O)=C(\C#N)C(=O)Nc1cc(Br)ccc1Br [LFM-A13] (first compound 1 µM, partner dose 2 µM)",51.1%,259%,125%,122%,115%,67.2%,99.8%,32.2%,75.7%
"C[As](C)SC[C@H](NC(=O)CC[C@H](N)C(=O)O)C(=O)NCC(=O)O [Darinaparsin] + CCCCCCCCCCCC1=C(O)C(=O)C=C(O)C1=O [Embelin] (first compound 0.4 µM, partner dose 1.2 µM)",162%,85.9%,212%,124%,233%,68%,96.7%,52.2%,88%
"C/C(O)=C(\C#N)C(=O)Nc1cc(Br)ccc1Br + O=C(Oc1ccc([N+](=O)[O-])cc1)N1CCC(C(O)(c2ccc3c(c2)OCO3)c2ccc3c(c2)OCO3)CC1 [JZL184] (first compound 2 µM, partner dose 1 µM)",67.2%,56.5%,40.3%,90.1%,45.7%,41.9%,97.8%,112%,89.6%
"Cn1nnc2c(C(N)=O)ncn2c1=O [temozolomide] + C/C(O)=C(\C#N)C(=O)Nc1cc(Br)ccc1Br [LFM-A13] (first compound 2 µM, partner dose 2 µM)",144%,159%,61.8%,86.7%,37.2%,98.4%,217%,84.7%,97.2%
"Cn1nnc2c(C(N)=O)ncn2c1=O [temozolomide] + Cc1cc(SCc2sc(-c3ccc(C(F)(F)F)c(F)c3)nc2C)ccc1OCC(=O)O [GW0742] (first compound 2 µM, partner dose 2 µM)",89.5%,218%,91.5%,63.5%,26.4%,96.5%,115%,23%,193%

# From the supplement of paper PMC4604168 (melanoma cell lines)
